Test results as given in patent US10335400B2, “Treatment of tauopathies with mGluR5 antagonists” (priority 2014, dated 2019).

Tested on: PP2Ac
Assay: PP2A regulatory factors (pTyr307-PP2Ac, demethylated Leu309, I1PP2A, I2PP2A) by Western blots in rat brain slices
Type: cell-based
Conditions: BMAA-treated rat brain slices (1 mM, 2 h)
Experimental: Male Wistar rats (Charles River Laboratories), 2-3 months old, were anesthetized by i.p. injection with 50 mg/kg Nembutal. The animals were decapitated when deeply anesthetized. The brains were removed immediately and cooled in ice-cold (4° C.) oxygenated artificial cerebrospinal fluid (aCSF) consisting of 126 mM NaCl, 3.5 mM KCl, 1.2 mM NaH2PO4, 1.3 mM MgCl2, 2 mM CaCl2, 11 mM D(+) glucose, and 25 mM NaHCO3 (pH 7.4) for 7-8 min. Each brain then was divided sagittally, and 400-μm-thick coronal slices were made with a Camden Vibraslicer (WP, Inc.). The slices were transferred into a chamber containing the oxygenated aCSF and were incubated at 33° C. for 2 h in the presence or absence of 1 mM, β-N ? methylamino-L-alanine (BMAA) dissolved in 10 mM NaHCO3 (Sigma). The oxygenation of the aCSF was carried out by bubbling the solution with a mixture of 95% O2 and 5% CO2 during the entire procedure. At the end of incubation, the brain slices were homogenized with homogenizing buffer [50 mM Tris·HCl (pH 7.4), 8.5% (wt/vol) sucrose, 2 mM EDTA, 2 mM EGTA, 10 mM (3-mercaptoethanol, 5 mM benzamidine, 0.5 mM 4-(2-Aminoethyl) benzenesulfonyl fluoride hydrochloride (AEBSF), 4 μg/mL pepstatin A, and 10 μg/mL each of aprotinin and leupepin] at a ratio of 9.0 mL buffer/1.0 g tissue slices. The homogenates were divided into two parts. One part was centrifuged at 16,000×g for 10 min, and the resulting supernatant was used to assay protein phosphatase 2A (PP2A) activity. Into the other half, an equal volume of phosphatase-inhibitor mixture (20 mM 3-glycerophosphate, 2 mM Na3VO4, and 100 mM NaF) was added immediately, and the samples were used for Western blots.
Protein was fractionated by 10% SDS/PAGE, transferred to PVDF membrane, and then blocked with 5% skim milk for 1 h at room temperature. […] The protein bands were detected with the enhanced chemiluminescence reagents (Thermo Scientific). Band intensity was measured by Multi-Gauge V3 software (Fuji Photo Film).

CNC[C@H](N)C(=O)O [BMAA, β-N-methylamino-L-alanine]
no significant changes: level of I1PP2A | level of I2PP2A | level of Leu309 demethylated PP2A
